# Patent US7053069B2, “Pharmaceutical compositions and methods of using C-21 modified epothilone derivatives” (Bristol-Myers Squibb Company, priority 2002, dated 2006)
# Some of these results come from one statement about several compounds together.
# Test: Stability of constituted and diluted solutions
# Type: physicochemical
# Settings: after final dilution with 0.9% Sodium Chloride Injection, 5° C. or room temperature and room light
smiles,measurement,value
"C/C(=C\c1csc(CN)n1)[C@@H]1C[C@@H]2O[C@]2(C)CCC[C@H](C)[C@H](O)[C@@H](C)C(=O)C(C)(C)[C@@H](O)CC(=O)O1 [Compound A, [1S-[1R*,3R*(E),7R*,10S*,11R*,12R*,16S*]]-3-[2-[2-(aminomethyl)-4-thiazolyl]-1-methylethenyl]-7,11-dihydroxy-8,8,10,12,16-pentamethyl-4,17-dioxabicyclo[14.1.0]heptadecane-5,9-dione]",time solutions are stable,≤ 24 h
